Patent publication CN112048019A
No constants are given. Whether binding was seen depends on the method and setting. Some binding calls cover weakened binding; strength is not graded here.

By UniProt entry, the sequences of proteins in these tests, tags left out. Residues count along the entry.
UniProt Q08722, residues 19-139: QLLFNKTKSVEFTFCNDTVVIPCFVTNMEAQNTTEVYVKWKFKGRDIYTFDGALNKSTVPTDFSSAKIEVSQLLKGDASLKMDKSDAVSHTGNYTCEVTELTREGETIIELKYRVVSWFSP

Target: CD47蛋白 (analyte in the ForteBio assay) (human) (UniProt Q08722)
Experiment: BLI (ForteBio)

B1: 抗CD47单克隆抗体3D8 (杂交瘤细胞株3D8, CGMCC No:17293) (antibody, V domains shown)
VH: EVKLQESGAELMKPGASVKISCKATGYTFSRYWIEWVKQRPGHGLEWIGDILPGTSNTNYNEKFKGKATFTADSSSNTAYMQLSSLTSEDSAVYYCARRGLLRFDCWGQGTTVTVSS
VL: DIQLTQSPAIMSASPGEKVTMTCRASSSVSSSYLHWYQQKSGASPKLWIYSSSTLASGVPARFSGSGSGTSYSLTISSVEAEDAATYYCQQYSGYPLTFGSGTKLGIKR
**Q.** Which binding does the source give for B1 here?
**A.** Its binding is “binds”.
